Molecules are shown by their SMILES. Converted amounts (≈) assume the structure as drawn.

This assay relates to Candida albicans. Description: MIC determination, micro-dilution method. The assay is classed as cell-based. The conditions noted are these: read-out: Minimum Inhibitory Concentration. An excerpt:
Mouth microbial representatives including unicellular fungi; Candida albicans (RCMB 05382), Candida glabrata (RCMBA 05386), Candida parapsilosis (RCMBA 06002), Candida tropicalis (RCMB 05384), Gram-positive bacteria; Lactobacillus acidophilus (RCMBA 4267), Streptococcus gordonii (RCMBA 2004), Streptococcus mutans (RCMBA 4131), and Gram-negative bacteria; Pseudomonas aeruginosa (RCMBA 1002) were obtained from the Regional Center for Mycology and Biotechnology (RCMB), Al-Azhar University, Cairo, Egypt, as test organisms.
The minimum inhibitory concentration (MIC) was determined by micro-dilution method using serially diluted (2 folds) extract and isolated compound. MIC of the extract was determined by dilution of extract and isolated compound of concentrations of 0.0-1000 µg/ml. Equal volume of each extract and nutrient broth were mixed in a test tube. Specifically 0.1 ml of standardized inoculum (1-2 X 10^7 CFU/ml) was added in each tube. The tubes were incubated at 37°C for 24-48 h. Two control tubes containing the growth medium, saline and the inoculum were maintained for each test batch. The lowest concentration (highest dilution) of the extract that produced no visible microbial growth (no turbidity) when compared with the control tubes were regarded as MIC.

In the case of `C[C@@H]1[C@H](O)[C@@H](C)/C=C/C=C/C=C/C=C/C=C/C=C/C=C/[C@H](O[C@@H]2O[C@H](C)[C@@H](O)[C@H](N)[C@@H]2O)C[C@@H]2O[C@](O)(C[C@@H](O)C[C@@H](O)[C@H](O)CC[C@@H](O)C[C@@H](O)CC(=O)O[C@H]1C)C[C@H](O)[C@H]2C(=O)O` [Amphotericin B, reference compound], the MIC stood at 1.95 µg/mL (≈ 2.11 µM).

These data come from patent publication EP2923697B1, “Extract and novel isolated compound from Aspergillus terreus for treatment of mouth microbial infections” (King Saud University, priority 2014, dated 2015).
